Source: the supplement of paper PMC10849652
This is one part of the list.

Chains of the proteins cited; added tags and fusions are not shown. Lines headed by an entry give the natural chain unless they say otherwise; changes in a name come on top.
UniProt Q6P9G4: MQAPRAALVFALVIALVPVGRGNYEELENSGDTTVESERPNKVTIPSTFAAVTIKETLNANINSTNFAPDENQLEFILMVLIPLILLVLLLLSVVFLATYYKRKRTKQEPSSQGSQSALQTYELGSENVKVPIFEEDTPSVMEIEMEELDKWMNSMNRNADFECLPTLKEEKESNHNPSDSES
UniProt Q9BSA9: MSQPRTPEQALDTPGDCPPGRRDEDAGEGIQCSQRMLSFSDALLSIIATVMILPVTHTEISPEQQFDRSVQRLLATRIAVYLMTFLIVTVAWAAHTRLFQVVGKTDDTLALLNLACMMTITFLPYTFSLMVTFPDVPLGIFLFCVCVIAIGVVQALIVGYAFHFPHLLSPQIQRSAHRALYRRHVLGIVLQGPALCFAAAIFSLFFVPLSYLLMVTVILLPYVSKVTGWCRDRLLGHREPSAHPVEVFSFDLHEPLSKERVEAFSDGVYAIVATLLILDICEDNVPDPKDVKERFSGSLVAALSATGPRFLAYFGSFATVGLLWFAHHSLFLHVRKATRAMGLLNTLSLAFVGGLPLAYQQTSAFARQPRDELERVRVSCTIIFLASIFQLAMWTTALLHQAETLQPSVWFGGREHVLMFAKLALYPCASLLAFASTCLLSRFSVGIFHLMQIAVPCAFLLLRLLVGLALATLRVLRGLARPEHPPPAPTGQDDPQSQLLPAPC
UniProt Q9NPI0: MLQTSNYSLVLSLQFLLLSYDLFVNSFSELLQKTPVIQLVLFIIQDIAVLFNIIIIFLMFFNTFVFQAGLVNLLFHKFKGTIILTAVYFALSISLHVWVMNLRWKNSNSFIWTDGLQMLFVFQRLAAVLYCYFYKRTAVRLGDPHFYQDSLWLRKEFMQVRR
UniProt P37173, whole entry, looked up: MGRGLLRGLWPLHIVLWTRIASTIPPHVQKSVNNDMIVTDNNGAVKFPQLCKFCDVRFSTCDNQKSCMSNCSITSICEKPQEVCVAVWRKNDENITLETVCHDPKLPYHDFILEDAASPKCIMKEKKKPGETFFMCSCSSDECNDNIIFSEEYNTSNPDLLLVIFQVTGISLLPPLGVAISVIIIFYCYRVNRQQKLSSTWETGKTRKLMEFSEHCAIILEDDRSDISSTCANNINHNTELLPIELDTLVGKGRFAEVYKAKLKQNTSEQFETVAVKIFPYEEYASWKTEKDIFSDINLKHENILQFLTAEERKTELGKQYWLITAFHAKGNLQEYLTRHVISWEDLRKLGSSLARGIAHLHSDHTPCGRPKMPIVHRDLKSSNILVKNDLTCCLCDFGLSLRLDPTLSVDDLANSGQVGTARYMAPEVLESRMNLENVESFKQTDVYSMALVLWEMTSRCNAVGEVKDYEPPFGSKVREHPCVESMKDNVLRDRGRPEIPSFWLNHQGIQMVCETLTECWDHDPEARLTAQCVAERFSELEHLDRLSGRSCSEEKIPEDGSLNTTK
UniProt Q8WTV1: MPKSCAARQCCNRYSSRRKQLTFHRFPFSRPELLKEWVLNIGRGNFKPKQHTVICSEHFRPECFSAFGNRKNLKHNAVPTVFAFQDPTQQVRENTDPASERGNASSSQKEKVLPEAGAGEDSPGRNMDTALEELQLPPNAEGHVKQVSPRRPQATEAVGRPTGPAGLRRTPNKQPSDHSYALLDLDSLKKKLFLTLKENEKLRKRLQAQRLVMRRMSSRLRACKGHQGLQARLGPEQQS
UniProt Q96EK4, whole entry, looked up: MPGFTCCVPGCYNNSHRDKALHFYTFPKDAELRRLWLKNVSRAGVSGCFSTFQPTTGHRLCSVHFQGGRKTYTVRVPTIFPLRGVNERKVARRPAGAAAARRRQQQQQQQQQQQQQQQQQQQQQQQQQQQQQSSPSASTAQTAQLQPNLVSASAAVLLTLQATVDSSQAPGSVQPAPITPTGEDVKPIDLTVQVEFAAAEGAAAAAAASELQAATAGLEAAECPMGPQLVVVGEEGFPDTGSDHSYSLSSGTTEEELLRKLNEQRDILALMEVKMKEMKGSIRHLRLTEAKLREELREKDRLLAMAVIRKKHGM
UniProt Q9Y3Q3: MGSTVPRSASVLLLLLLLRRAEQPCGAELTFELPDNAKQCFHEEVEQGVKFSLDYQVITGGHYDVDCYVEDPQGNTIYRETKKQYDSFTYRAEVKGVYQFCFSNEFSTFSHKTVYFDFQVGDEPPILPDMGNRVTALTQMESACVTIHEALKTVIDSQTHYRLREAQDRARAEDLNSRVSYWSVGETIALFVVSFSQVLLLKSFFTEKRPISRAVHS
UniProt Q9Y2W1: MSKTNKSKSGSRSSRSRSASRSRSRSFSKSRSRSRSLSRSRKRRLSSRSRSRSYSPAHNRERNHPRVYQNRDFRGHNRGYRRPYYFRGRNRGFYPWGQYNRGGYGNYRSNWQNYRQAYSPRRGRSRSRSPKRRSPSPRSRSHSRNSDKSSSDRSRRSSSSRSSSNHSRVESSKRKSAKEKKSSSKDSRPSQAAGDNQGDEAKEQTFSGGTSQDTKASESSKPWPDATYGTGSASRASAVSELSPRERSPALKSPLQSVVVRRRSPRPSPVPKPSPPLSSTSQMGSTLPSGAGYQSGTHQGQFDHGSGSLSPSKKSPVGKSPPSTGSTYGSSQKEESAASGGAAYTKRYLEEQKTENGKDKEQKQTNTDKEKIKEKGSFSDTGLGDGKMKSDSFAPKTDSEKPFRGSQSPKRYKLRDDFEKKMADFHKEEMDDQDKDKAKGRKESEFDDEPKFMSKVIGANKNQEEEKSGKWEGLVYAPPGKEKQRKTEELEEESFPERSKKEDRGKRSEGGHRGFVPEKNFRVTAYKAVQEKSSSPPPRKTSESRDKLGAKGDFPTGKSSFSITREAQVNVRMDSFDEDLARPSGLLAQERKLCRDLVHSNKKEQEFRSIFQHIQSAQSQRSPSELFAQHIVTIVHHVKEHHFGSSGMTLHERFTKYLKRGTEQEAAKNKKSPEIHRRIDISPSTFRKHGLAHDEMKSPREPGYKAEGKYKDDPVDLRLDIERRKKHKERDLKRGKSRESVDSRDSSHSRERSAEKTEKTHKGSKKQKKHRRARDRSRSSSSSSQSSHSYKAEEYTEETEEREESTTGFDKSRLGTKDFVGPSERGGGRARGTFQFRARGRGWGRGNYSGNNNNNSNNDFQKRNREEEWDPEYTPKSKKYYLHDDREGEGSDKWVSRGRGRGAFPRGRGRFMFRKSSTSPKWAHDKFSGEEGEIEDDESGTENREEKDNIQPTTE
UniProt Q9NVA4: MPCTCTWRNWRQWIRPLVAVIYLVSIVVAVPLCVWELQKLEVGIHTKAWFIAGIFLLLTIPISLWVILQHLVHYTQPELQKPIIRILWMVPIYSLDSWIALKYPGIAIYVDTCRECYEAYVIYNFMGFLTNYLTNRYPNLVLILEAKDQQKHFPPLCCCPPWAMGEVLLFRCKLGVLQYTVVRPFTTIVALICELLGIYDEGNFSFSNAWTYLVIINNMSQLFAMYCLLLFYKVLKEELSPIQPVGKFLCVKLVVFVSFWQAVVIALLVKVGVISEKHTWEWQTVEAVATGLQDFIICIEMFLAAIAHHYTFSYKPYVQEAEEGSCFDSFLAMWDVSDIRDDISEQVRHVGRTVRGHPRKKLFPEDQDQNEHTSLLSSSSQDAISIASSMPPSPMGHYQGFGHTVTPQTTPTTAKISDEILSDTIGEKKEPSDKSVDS
UniProt O76062: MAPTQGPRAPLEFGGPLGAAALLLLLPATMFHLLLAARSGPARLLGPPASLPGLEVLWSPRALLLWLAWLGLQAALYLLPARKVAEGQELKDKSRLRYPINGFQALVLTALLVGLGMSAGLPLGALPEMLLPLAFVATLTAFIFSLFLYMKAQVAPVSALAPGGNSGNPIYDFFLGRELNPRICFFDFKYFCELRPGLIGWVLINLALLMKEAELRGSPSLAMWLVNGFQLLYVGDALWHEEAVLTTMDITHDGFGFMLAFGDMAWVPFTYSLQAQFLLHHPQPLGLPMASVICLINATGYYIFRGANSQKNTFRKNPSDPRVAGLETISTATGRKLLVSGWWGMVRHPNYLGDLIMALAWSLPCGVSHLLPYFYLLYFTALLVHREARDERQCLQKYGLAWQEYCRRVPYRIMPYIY
UniProt Q9Y519: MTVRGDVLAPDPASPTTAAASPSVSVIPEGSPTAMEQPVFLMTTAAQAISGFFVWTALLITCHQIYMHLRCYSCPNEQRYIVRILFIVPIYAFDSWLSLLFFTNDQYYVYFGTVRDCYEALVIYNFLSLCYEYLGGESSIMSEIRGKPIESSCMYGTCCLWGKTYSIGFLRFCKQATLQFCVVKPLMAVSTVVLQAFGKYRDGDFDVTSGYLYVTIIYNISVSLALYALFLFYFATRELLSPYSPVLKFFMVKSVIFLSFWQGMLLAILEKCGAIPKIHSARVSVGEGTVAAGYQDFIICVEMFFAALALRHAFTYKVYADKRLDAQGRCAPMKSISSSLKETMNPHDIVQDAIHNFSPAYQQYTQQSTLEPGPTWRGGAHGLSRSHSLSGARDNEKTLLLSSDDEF
UniProt Q8IUC6, whole entry, looked up: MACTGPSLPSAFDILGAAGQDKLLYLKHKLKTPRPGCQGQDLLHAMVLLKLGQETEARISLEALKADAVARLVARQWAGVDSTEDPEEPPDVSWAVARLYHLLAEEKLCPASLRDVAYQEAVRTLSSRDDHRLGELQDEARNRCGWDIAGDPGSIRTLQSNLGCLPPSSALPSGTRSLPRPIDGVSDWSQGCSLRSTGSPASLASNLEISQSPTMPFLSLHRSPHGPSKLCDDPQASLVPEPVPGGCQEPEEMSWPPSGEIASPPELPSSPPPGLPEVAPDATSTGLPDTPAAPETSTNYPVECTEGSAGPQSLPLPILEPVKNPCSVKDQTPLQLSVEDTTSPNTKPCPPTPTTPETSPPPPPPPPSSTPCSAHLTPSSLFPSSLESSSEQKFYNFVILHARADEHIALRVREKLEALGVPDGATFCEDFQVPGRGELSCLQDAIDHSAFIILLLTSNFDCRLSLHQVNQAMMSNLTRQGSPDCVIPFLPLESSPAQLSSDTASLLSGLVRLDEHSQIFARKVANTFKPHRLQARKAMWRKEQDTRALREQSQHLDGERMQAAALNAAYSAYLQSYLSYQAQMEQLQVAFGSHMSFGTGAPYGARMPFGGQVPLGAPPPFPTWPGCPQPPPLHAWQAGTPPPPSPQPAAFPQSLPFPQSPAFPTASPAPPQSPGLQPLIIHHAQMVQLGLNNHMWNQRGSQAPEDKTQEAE
UniProt Q8NE00: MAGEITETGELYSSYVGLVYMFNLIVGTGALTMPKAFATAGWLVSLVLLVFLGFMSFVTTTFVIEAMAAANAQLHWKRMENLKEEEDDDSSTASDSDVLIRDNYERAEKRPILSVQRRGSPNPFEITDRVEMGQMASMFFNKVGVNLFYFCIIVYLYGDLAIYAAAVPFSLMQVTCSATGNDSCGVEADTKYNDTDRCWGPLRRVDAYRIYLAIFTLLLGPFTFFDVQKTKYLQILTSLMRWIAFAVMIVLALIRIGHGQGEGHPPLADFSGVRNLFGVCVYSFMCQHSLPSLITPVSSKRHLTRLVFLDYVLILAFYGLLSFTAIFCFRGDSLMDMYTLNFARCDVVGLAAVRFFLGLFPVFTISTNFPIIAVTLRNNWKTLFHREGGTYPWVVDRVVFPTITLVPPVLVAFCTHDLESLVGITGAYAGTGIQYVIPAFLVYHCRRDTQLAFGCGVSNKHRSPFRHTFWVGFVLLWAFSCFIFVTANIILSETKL
UniProt Q9H5L6: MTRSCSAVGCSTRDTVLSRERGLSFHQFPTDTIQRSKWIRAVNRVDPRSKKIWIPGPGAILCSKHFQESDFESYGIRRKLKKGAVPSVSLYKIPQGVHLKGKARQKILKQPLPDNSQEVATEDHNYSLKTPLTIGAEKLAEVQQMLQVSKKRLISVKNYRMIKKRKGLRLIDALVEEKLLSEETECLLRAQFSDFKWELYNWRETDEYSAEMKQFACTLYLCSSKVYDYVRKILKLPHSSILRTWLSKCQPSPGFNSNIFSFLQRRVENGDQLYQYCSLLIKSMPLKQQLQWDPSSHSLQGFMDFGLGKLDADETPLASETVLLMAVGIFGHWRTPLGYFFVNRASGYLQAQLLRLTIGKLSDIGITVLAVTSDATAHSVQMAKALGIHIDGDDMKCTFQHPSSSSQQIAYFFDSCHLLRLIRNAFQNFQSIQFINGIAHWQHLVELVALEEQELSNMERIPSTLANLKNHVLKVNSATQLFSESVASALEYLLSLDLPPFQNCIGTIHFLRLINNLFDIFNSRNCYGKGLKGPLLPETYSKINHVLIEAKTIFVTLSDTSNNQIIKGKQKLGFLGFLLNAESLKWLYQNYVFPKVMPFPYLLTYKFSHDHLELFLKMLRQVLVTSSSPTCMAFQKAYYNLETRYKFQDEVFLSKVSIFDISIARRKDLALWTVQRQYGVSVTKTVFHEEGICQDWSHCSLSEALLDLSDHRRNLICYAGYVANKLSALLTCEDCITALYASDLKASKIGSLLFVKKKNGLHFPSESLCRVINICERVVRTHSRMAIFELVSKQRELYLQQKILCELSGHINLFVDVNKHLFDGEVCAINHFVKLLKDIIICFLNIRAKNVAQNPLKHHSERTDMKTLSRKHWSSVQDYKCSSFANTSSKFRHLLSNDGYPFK

Columns and labels:
Assay in all cases: log2 fold change, soluble protein after heating vs DMSO (PISA); higher = thermal stabilisation; K562 lysate, 10 uM; active = over 0.2 and 3.5 SD of the protein, either way, in both replicates (recomputed)
[1] = compound: O=C(CCCCCCC(=O)Nc1ccccc1)NO [vorinostat]
How it was run: (§1)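 Thermal stability, expressed as log-two fold change relative to solvent controls, is given from duplicates. Crude K562 extract in PBS pH 7.4 with 1 mM MgCl2, at 1 mg/mL protein, was treated with 10 μM compound for 30 min and heated in aliquots for 3 min across 48°C-58°C. After pooling, adjustment to 0.5% NP-40 at 4°C and centrifugation at 21,000xg for 90 min, supernatant protein was measured by TMTpro 16plex LC-MS/MS with channel sums equalised.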

[2] = compound: O=C(O)c1ccc2c(c1)nc(Nc1cccc(Cl)c1)c1ccncc12 [silmitasertib]
How it was run: as §1

[3] = compound: O=C1NC(=O)C(c2cnc3ccccn23)=C1c1cn2c3c(cc(F)cc13)CN(C(=O)N1CCCCC1)CC2
How it was run: as §1

[4] = compound: c1cn2cc(-c3ccc4cn[nH]c4c3)nc(Nc3ccc(N4CCOCC4)cc3)c2n1 [entospletinib]
How it was run: as §1

[5] = compound: NCC(=O)Nc1ccc(-n2nc(C(F)(F)F)cc2-c2ccc3c(ccc4ccccc43)c2)cc1
How it was run: as §1

Target	log2 fold change [1]	log2 fold change [2]	log2 fold change [3]	log2 fold change [4]	log2 fold change [5]
TIFA (UniProt Q96CG3)	inactive: 0.086	inactive: -0.054	inactive: -0.053	inactive: 0.023	–
TMEM154 (UniProt Q6P9G4)	–	–	inactive: 0.008	inactive: -0.056	–
TMEM175 (UniProt Q9BSA9)	inactive: -0.239	inactive: 0	inactive: -0.013	–	–
TMEM147 (UniProt Q9BVK8)	inactive: 0.286	inactive: 0.012	inactive: -0.001	inactive: 0.084	–
TMC7 (UniProt Q7Z402)	inactive: 0.097	inactive: 0.035	–	–	–
TMEM138 (UniProt Q9NPI0)	inactive: 0.164	inactive: -0.005	–	inactive: 0.089	inactive: -0.096
THOC2 (UniProt H0Y7U4)	–	–	inactive: 0.005	–	–
TMEM143 (UniProt Q96AN5)	–	–	inactive: 0.092	inactive: 0.057	inactive: -0.045
TMEM101 (UniProt Q96IK0)	inactive: 0.116	inactive: 0.057	inactive: 0.06	inactive: -0.064	–
THBS1 (UniProt P07996)	–	–	inactive: 0.082	–	inactive: 0.058
TKT, A0A0B4J1R6	inactive: 0.064	inactive: -0.017	inactive: -0.144	–	–
TGFBR2 isoform 2 (UniProt P37173)	inactive: 0.162	inactive: -0.104	–	inactive: 0.159	–
TMEM106C (UniProt Q9BVX2)	inactive: -0.134	inactive: -0.104	–	inactive: -0.27	–
TMEM127 (UniProt O75204)	inactive: 0.044	inactive: -0.135	–	inactive: -0.197	inactive: 0.05
TMEM102 (UniProt Q8N9M5)	–	–	inactive: -0.044	inactive: -0.069	inactive: 0.024
THAP3 (UniProt Q8WTV1)	inactive: -0.243	inactive: -0.064	inactive: 0.14	–	–

A run of entries taken from the entries so far, for reference:
Target	log2 fold change [1]	log2 fold change [2]	log2 fold change [3]	log2 fold change [4]	log2 fold change [5]
TMEM147 (UniProt Q9BVK8)	inactive: 0.286	inactive: 0.012	inactive: -0.001	inactive: 0.084	–
TMC7 (UniProt Q7Z402)	inactive: 0.097	inactive: 0.035	–	–	–

Further records

Target	log2 fold change [1]	log2 fold change [2]	log2 fold change [3]	log2 fold change [4]	log2 fold change [5]
THAP11 (UniProt Q96EK4)	inactive: -0.08	inactive: -0.103	–	inactive: -0.124	inactive: 0.111
TGFBR1 isoform 2 (UniProt P36897)	inactive: 0	inactive: 0.076	–	inactive: -0.004	–
TMED3 (UniProt Q9Y3Q3)	inactive: -0.036	inactive: 0.073	inactive: -0.034	–	–
TMEM159 isoform 2 (UniProt Q96B96)	inactive: 0.188	inactive: -0.108	inactive: 0.138	inactive: -0.045	–
TMEM129	inactive: -0.194	inactive: -0.234	–	–	–
TGIF1 (UniProt Q15583)	inactive: -0.185	inactive: -0.07	inactive: 0.03	–	–
THRAP3 (UniProt Q9Y2W1)	inactive: 0.059	inactive: -0.04	inactive: -0.024	inactive: -0.031	inactive: 0.037
TMEM184C (UniProt Q9NVA4)	inactive: 0.086	inactive: 0.002	inactive: 0.006	inactive: -0.111	–
TMCC1 (UniProt O94876)	–	–	–	inactive: -0.42	inactive: 0.052
TM7SF2 (UniProt O76062)	–	–	inactive: -0.161	–	–
TMEM184B (UniProt Q9Y519)	–	–	inactive: 0.074	–	–
TICAM1 (UniProt Q8IUC6)	inactive: 0.146	inactive: 0.103	inactive: 0.043	–	–
TMEM104 (UniProt Q8NE00)	–	–	inactive: -0.042	–	inactive: -0.187
THAP9 (UniProt Q9H5L6)	–	–	inactive: 0.09	inactive: 0.059	inactive: 0.207
TMCO3 (UniProt Q6UWJ1)	–	–	inactive: 0.054	inactive: -0.036	inactive: -0.014
